The results in this text go back to US20220048999A1 (Genmab, published 2022).

These are yes or no findings as the source states them, for the method shown.

Assay [1] has as its target T1, human B7H4, full length, on cells (human, UniProt Q7Z7D3 25-282).
T1 construct: On transiently transfected HEK cells or on B7H4-expressing human tumor cell lines; also called VTCN1
T1 sequence: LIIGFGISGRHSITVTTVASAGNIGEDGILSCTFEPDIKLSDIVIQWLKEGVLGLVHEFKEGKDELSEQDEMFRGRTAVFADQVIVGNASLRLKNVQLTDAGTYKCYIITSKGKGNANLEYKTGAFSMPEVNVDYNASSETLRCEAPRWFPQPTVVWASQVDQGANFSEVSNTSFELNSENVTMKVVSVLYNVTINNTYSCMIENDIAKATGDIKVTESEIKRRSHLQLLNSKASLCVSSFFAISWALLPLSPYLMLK
Description: flow cytometry, MDA-MB-468 and HCC1954 cells. (Flow cytometry measures light scatter and fluorescence of single cells or particles in a stream.)

Assay [2] concerns the target T1, human B7H4, full length, on cells. Description: flow cytometry on HCC1954 cells (lower left and lower right panels), 0.014-30 µg/ml, MFI PE.
Assay [3] has the same target. As to the kind of experiment: flow cytometry, HEK cells transiently transfected with human B7H4 (panel B7H4), 0.014-30 µg/ml, MFI PE.
A further assay deals with B7H3-IgV/B7H4-IgC. As to the kind of experiment: flow cytometry, HEK cells transiently transfected with B7H3-IgV/B7H4-IgC (panel B7H3-IgV/B7H4-IgC), 0.014-30 µg/ml, MFI PE.
For a further assay, the target named is T2, B7H4-IgV/B7H3-IgC.
T2 sequence (full length chimeric protein on cells): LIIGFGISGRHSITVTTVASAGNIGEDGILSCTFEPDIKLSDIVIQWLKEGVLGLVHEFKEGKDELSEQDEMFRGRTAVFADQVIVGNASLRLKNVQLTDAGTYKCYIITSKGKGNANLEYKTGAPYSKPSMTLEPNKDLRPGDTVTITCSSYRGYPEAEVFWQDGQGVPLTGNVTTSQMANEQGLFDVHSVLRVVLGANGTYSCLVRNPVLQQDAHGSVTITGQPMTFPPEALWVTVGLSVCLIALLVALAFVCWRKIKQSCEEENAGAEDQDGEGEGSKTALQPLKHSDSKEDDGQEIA
As to the kind of experiment: flow cytometry, HEK cells transiently transfected with B7H4-IgV/B7H3-IgC (panel B7H4-IgV/B7H3-IgC), 0.014-30 µg/ml, MFI PE.

Assay [4] concerns the target T1, human B7H4, full length, on cells. Description: flow cytometry, MCF-7 and MDA-MB-468 cells.
Assay [5] shares this target. As to the kind of experiment: flow cytometry on MCF-7 cells (B7H4-expressing), MFI PE.

B1: IgG1-b12-K409R (antibody, V domains shown)
VH: QVQLVQSGAEVKKPGASVKVSCQASGYRFSNFVIHWVRQAPGQRFEWMGWINPYNGNKEFSAKFQDRVTFTADTSANTAYMELRSLRSADTAVYYCARVGPYSWDDSPQDNYYMDVWGKGTTVIVSS
VL: EIVLTQSPGTLSLSPGERATFSCRSSHSIRSRRVAWYQHKPGQAPRLVIHGVSNRASGISDRFSGSGSGTDFTLTITRVEPEDFALYYCQVYGASSYTFGQGTKLERKR
In the case of B1, the binding result in assay [1] was “no binding”; in assay [2] it was “no binding (tested: 30 µg/ml)”; in assay [3] it was “no binding (tested: 30 µg/ml)”; with B7H3-IgV/B7H4-IgC it was “no binding (tested: 30 µg/ml)”; with B7H4-IgV/B7H3-IgC it was “no binding (tested: 30 µg/ml)”.

B2: IgG1-b12 (antibody, V domains shown)
VH: B1 VH
VL: EIVLTQSPGTLSLSPGERATFSCRSSHSIRSRRVAWYQHKPGQAPRLVIHGVSNRASGISDRFSGSGSGTDFTLTITRVEPEDFALYYCQVYGASSYTFGQGTKLERK
For the molecule B2, the values for the binding result in assay [4] and in assay [5] were “no binding” and “no binding (tested: 30 µg/ml)”, respectively.
